{"source": "paper PMC5979539", "about": "(International Journal of Molecular Sciences, 2018)"}
{"assay": "general procedure: Fmoc solid-phase peptide synthesis; Rink amide MBHA resin (0.70 mmol/g); HBTU/DIEA", "conditions": "conjugation step, conversion by HPLC peak area at 220 nm", "units": {"conjugation yield": "%"}}
{"substance": "Fuc-α1,3-GlcNAc-Aoa(m)-GFKKG", "conjugation yield": 9}
{"substance": "Fuc-α1,4-GlcNAc-Aoa(m)-GFKKG", "conjugation yield": 16}
{"substance": "Fuc-α1,6-GlcNAc-Aoa(m)-GFKKG", "conjugation yield": 55}
{"substance": "Gal-β1,3-GlcNAc-Aoa(m)-GFKKG", "conjugation yield": 51}
{"substance": "Gal-β1,4-GlcNAc-Aoa(m)-GFKKG", "conjugation yield": 69}
{"substance": "Gal-β1,6-GlcNAc-Aoa(m)-GFKKG", "conjugation yield": 33}
{"substance": "Man-α1,2-Man-Aoa(m)-GFKKG", "conjugation yield": 12}
{"substance": "Man-α1,3-Man-Aoa(m)-GFKKG", "conjugation yield": 42}
{"substance": "Man-α1,6-Man-Aoa(m)-GFKKG", "conjugation yield": 43}
{"substance": "Neu5Ac-α2,3-Gal-β1,4-GlcNAc-Aoa(m)-GFKKG", "conjugation yield": 54}
{"substance": "Neu5Ac-α2,6-Gal-β1,4-GlcNAc-Aoa(m)-GFKKG", "conjugation yield": 46}
{"assay": "general procedure: Fmoc solid-phase peptide synthesis; Rink amide MBHA resin (0.70 mmol/g); HBTU/DIEA", "conditions": "whole synthesis, analytical RP-HPLC, scale of the general procedure 0.1 mmol", "units": {"crude HPLC purity": "%"}}
{"substance": "Ac-GFKKG-amide", "crude HPLC purity": ">95"}
{"substance": "N[Me]-O-Aoa-GFKKG-amide", "crude HPLC purity": ">95"}
